From the supplement of paper PMC4604168 (melanoma cell lines)
The list shows a part of the results. Many values rest on one well or one pass, so single values are uncertain.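 Imaging used 1,536-well plates; nuclei positive for cleaved PARP by antibody were divided by total DNA-stained nuclei to yield the apoptosis fraction. Doses for screening kept most cells viable, and cell lines differ markedly in resting and induced cleaved-PARP levels.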

test system: C32; test: cleaved PARP positive nuclei fraction relative to DMSO control; melanoma cells; higher = more apoptosis; conditions: library dose: low library concentration; 72 h

SMILES	cleaved PARP positive nuclei fraction
CC(C)C[C@H](NC(=O)[C@H](Cc1ccccc1)NC(=O)c1cnccn1)B(O)O [Bortezomib] + O=C(O)c1ccc(-c2c[nH]c3ncc(-c4ccccc4)cc23)cc1C1CCCC1 [GSK650394] (first compound 0.001 µM, partner dose 0.16 µM)	96.3%
C[C@@H](Oc1cc(-c2cnn(C3CCNCC3)c2)cnc1N)c1c(Cl)ccc(F)c1Cl [Crizotinib] + C[C@@H]1CCN(C(=O)CC#N)C[C@@H]1N(C)c1ncnc2[nH]ccc12 [CP690550] (first compound 0.2 µM, partner dose 1 µM)	52.5%
CC(C)C[C@H](NC(=O)[C@H](Cc1ccccc1)NC(=O)c1cnccn1)B(O)O [Bortezomib] + Cc1cc(N2CCOCC2)cc2[nH]c(-c3c(NC[C@@H](O)c4cccc(Cl)c4)cc[nH]c3=O)nc12 [BMS536924] (first compound 0.001 µM, partner dose 0.2 µM)	104%
Nc1ccn([C@@H]2O[C@H](CO)[C@@H](O)C2(F)F)c(=O)n1 [gemcitabine] + CC(C)(C)c1cnc(CSc2cnc(NC(=O)C3CCNCC3)s2)o1 [SNS-032] (first compound 0.0004 µM, partner dose 0.01 µM)	181%
CCCS(=O)(=O)Nc1ccc(F)c(C(=O)c2c[nH]c3ncc(Cl)cc23)c1F + C=CCn1c(=O)c2cnc(Nc3ccc(N4CCN(C)CC4)cc3)nc2n1-c1cccc(C(C)(C)O)n1 [MK1775] (first compound 0.08 µM, partner dose 0.02 µM)	88.5%
